In PMC11106261:
These are yes or no findings as the source states them, for the method shown. Binding seen in cells or lysates may run through a third protein. Some entries that bind do so weakly or less than the wild type.

Sequences of proteins named here, by UniProt entry; tags and fusion partners are left off.
UniProt Q93009: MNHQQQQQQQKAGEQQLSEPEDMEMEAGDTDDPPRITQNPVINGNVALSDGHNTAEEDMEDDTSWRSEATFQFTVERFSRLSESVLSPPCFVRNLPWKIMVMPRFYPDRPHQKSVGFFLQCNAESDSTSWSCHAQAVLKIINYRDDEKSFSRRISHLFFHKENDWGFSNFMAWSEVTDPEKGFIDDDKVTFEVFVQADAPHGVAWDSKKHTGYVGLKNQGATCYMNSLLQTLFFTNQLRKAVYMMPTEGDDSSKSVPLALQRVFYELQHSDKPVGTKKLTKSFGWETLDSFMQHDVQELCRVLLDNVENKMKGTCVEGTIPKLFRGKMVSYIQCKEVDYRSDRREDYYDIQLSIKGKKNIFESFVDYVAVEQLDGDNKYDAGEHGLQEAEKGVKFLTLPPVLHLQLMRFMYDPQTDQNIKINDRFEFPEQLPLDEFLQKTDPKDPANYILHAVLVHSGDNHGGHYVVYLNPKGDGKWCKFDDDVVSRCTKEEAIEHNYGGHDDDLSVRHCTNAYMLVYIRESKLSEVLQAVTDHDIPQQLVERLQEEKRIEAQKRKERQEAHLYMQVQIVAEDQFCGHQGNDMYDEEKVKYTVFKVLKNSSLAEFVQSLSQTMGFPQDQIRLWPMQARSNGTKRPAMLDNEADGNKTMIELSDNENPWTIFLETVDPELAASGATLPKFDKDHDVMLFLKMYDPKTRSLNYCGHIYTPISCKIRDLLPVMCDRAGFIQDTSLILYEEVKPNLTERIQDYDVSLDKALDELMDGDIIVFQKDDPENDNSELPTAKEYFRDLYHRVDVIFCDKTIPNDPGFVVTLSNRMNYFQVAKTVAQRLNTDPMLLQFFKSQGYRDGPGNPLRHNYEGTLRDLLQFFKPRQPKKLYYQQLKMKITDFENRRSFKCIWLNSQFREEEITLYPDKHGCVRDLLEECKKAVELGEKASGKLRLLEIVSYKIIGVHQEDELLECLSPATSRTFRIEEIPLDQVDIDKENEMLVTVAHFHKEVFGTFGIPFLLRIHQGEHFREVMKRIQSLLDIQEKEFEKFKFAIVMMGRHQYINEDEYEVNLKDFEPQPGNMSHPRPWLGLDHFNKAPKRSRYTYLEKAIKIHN
UniProt P25490: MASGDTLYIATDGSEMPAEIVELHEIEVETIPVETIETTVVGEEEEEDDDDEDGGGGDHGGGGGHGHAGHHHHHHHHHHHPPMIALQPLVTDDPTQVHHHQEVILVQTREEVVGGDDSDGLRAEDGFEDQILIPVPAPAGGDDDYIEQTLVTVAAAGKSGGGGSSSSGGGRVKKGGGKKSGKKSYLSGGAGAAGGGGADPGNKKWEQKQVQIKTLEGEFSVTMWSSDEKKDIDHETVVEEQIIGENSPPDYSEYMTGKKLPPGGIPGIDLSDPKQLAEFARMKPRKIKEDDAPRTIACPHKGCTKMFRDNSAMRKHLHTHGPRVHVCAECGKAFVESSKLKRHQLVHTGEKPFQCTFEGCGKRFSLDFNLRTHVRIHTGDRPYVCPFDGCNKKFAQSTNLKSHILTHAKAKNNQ

Experiments:
[1] = biological target: HA-USP7 (ubiquitin-specific protease 7), exogenous in HEK 293T cells (human) (UniProt Q93009); assay: co-IP; HEK 293T cell extracts with exogenous Flag-YY1 and HA-USP7; magnetic beads, overnight at 4 °C, washed with 1 x PBS + 0.5% Tween-20, pH 7.4; immunoblot
[2] = biological target: Flag-YY1 (Yin Yang 1), exogenous in HEK 293T cells (human) (UniProt P25490); assay: as above
[3] = biological target: Yin Yang 1 (YY1), endogenous in CRC cells (human (endogenous in HCT116, LOVO, DLD1)) (UniProt P25490); assay: co-IP; endogenous proteins in HCT116, LOVO and DLD1 cell lysates; Protein A/G magnetic beads with primary antibody, overnight at 4 °C, washed with 1 x PBS + 0.5% Tween-20, pH 7.4; immunoblot
[4] = biological target: Ubiquitin-specific protease 7 (USP7), endogenous in CRC cells (human (endogenous in HCT116, LOVO, DLD1)) (UniProt Q93009); assay: as above

Flag-YY1 (Yin Yang 1), exogenous in HEK 293T cells (from UniProt P25490 1-414)
binding [1]: binds

HA-USP7 (ubiquitin-specific protease 7), exogenous in HEK 293T cells (from UniProt Q93009 1-1102) (enzyme)
binding [2]: binds

Ubiquitin-specific protease 7 (USP7), endogenous in CRC cells (from UniProt Q93009 1-1102) (enzyme)
binding [3]: binds

Yin Yang 1 (YY1), endogenous in CRC cells (from UniProt P25490 1-414)
binding [4]: binds
